Data set [1] deals with AIFΔ101 WT (Homo sapiens) (UniProt O95831). Nature of the data set: ITC. Particulars: Kd dsDNA from cooperativity fit, H2AX titrated into AIF:dsDNA, alpha 2.7, printed Ka 0.1 /uM; ITC: 50 mM potassium phosphate pH 7.4, 15 °C (25 °C with CypA); recombinant protein; residues 102-613; protein details: N-terminal His6.
For data set [2], the target named is CypA (Homo sapiens) (UniProt P62937). Nature of the data set: ITC. Particulars: binary, lowest dsDNA affinity, value in Table S4 not in material; ITC: 50 mM potassium phosphate pH 7.4, 15 °C (25 °C with CypA); recombinant protein; protein details: N-terminal His6.

The chains behind the UniProt entries cited, without tags or fusion partners. Where a name states a change or a piece, a line headed by the entry shows the natural chain unless it says otherwise. Residues count along the entry.
UniProt O95831, 102-613, stated change not applied: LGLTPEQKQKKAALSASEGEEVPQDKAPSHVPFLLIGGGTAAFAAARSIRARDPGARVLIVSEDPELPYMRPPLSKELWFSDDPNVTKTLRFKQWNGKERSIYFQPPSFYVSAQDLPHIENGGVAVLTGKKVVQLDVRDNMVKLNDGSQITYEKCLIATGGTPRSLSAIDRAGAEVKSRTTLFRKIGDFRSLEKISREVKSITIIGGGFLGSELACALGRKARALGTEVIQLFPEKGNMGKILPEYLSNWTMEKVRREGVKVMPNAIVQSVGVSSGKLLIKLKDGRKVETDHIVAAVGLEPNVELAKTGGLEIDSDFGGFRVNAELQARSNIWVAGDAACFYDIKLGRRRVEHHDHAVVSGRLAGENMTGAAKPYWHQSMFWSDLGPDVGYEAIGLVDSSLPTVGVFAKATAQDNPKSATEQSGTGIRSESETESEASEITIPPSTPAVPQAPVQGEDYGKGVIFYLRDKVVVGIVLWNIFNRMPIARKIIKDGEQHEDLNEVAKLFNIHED
UniProt P62937: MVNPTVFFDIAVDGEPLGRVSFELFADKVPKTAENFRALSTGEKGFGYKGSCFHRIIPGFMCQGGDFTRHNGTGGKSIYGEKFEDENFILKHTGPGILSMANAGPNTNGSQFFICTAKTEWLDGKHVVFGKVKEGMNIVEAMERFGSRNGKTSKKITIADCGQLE

Construct, isoform or probe ends are uncertain for at least one entry. For some assays here: The comparison behind a weaker result is the experiment's own reference, which may not be listed here.

For the sequence “GGTTAGTTATGCGCG (double strand) [15-bp dsDNA]”, in data set [1], the Kd (usually the equilibrium constant for the complex coming apart) was 9.8 µM. The binding result in data set [2] was “binds more weakly”.

Source of the values: paper PMC9944232.
